Assay [1] concerns the target β-catenin (human (endogenous in A549 and H1299)) (UniProt P35222). In words: co-IP; antibodies (against DDX3, β-catenin or H3K4Me3 as control) cross-linked to protein A/G magnetic beads; A549 and H1299 cell lysates incubated overnight at 4°C; eluted at pH 2.0; immunoblot. (A western blot detects proteins with antibodies after separation by electrophoresis.)
The target in assay [2] is DDX3 (human (endogenous in A549 and H1299)) (UniProt O00571). The description is as above.

Sequences of proteins named here, by UniProt entry; tags and fusion partners are left off.
UniProt P35222: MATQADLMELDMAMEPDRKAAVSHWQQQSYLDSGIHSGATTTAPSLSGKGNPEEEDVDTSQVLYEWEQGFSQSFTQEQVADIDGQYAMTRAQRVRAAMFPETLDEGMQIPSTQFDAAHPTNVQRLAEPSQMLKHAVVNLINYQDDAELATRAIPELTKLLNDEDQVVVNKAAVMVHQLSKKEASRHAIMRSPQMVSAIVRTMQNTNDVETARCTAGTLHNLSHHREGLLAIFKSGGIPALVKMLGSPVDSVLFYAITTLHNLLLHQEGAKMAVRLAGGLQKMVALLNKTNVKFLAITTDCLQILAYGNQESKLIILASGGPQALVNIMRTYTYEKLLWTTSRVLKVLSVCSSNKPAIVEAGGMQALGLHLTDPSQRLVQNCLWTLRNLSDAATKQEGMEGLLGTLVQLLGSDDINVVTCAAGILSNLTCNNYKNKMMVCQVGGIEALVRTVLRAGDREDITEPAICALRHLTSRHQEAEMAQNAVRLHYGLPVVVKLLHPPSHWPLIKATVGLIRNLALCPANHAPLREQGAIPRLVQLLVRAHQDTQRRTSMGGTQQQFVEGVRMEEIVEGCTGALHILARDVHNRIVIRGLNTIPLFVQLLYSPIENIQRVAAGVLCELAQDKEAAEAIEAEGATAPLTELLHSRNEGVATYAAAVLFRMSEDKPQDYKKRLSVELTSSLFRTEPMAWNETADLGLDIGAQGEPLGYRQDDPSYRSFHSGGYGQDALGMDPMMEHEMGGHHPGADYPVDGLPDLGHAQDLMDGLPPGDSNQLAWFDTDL
UniProt O00571: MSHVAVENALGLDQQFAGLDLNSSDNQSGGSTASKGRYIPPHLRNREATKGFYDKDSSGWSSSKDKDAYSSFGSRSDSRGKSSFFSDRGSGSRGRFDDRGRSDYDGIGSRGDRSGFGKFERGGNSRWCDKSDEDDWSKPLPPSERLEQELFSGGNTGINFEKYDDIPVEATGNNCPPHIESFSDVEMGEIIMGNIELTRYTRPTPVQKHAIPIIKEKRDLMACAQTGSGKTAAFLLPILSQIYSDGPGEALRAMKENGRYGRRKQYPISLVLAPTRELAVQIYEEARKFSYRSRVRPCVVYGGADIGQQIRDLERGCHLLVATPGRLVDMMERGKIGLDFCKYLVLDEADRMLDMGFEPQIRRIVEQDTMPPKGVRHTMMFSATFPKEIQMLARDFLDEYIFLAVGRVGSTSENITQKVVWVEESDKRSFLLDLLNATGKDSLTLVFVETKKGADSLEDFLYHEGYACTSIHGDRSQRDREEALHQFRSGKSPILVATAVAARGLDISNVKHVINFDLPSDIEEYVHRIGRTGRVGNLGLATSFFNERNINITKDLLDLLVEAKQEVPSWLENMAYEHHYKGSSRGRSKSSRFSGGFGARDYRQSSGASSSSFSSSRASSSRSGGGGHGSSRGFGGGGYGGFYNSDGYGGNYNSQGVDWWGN

Results are given in words; binding and its absence hold for the method and conditions named. Binding seen in cells or lysates may run through a third protein. Some entries that bind do so weakly or less than the wild type.

As for DDX3 (from UniProt O00571 1-662), the binding result in assay [1] is reported as “binds”.
In the case of β-catenin (from UniProt P35222 1-781), in assay [2], the binding entry is “binds”.
